The data set can be described thus: general procedure: Fmoc solid-phase peptide synthesis; Fmoc-Lys(Boc)-Wang resin (0.64 mmol/g); DIC/Oxyma Pure. Particulars: whole synthesis, analytical HPLC, detection at 220 nm; LC-MS, scale of the general procedure 50 μmol.
In the case of Ac-WBDDEFAAIBARHGNELRELADK-OH, the “final HPLC purity” value was 99%.

On to Ac-WBDDEFAAIBAVHGNELRELADK-OH, for which the “final HPLC purity” value was 97%.

With Ac-WBDDEFAAIBAVHGNELRELARK-OH, the “final HPLC purity” value was 99%.

Ac-WBDDEFAAIBAVHGNELRELRDK-OH: the “final HPLC purity” value was found to be 99%.

For the substance Ac-WBDDEFAAIBAVHGNELRRLADK-OH, the “final HPLC purity” value turned out to be 99%.

For the substance Ac-WBDDEFAAIBAVHGNRLRELADK-OH, the “final HPLC purity” value was 99%.

As to Ac-WBDDEFAAIBAVHGRELRELADK-OH, the “final HPLC purity” value turned out to be 99%.

On to Ac-WBDDEFAAIBRVHGNELRELADK-OH, for which the “final HPLC purity” value was 97%.

For Ac-WBDDEFARIBAVHGNELRELADK-OH, the “final HPLC purity” value is recorded as 99%.

As for Ac-WBDDEFRAIBAVHGNELRELADK-OH, the “final HPLC purity” value turned out to be 99%.

For the substance Ac-WBDDRFAAIBAVHGNELRELADK-OH, the “final HPLC purity” value amounted to 99%.

Take Ac-WBDNEFAAIBAVHGRQLRRLANK-OH: the “final HPLC purity” value turned out to be 97%.

Turning to Ac-WBDNEFAAIBAVHGRQLRRLARK-OH, the “final HPLC purity” value turned out to be 98%.

As for Ac-WBDREFAAIBAVHGNELRELADK-OH, the “final HPLC purity” value was 99%.

As to Ac-WBNNEFAAIBAVHGRQLRRLANK-OH, the “final HPLC purity” value stood at 98%.

Regarding Ac-WBNNEFAAIBAVHGRQLRRLARK-OH, the “final HPLC purity” value came out at 97%.

For the substance Ac-WBNNEFAXIBAXHGRQLRRLARK-OH, the “final HPLC purity” value is recorded as 98%.

As to Ac-WBNNEFXAIBXVHGRQLRRLARK-OH, the “final HPLC purity” value came to 96%.

As for Ac-WBNXEFAXIBAVHGRQLRRLARK-OH, the “final HPLC purity” value is 94%.

Consider Ac-WBRDEFAAIBAVHGNELRELADK-OH, for which the “final HPLC purity” value is recorded as 99%.

Ac-WBRDEFAAIBRVHGNELRELADK-OH: the “final HPLC purity” value came to 98%.

As for Ac-WBRDEFAAIBRVHGXELRXLADK-OH, the “final HPLC purity” value came to 93%.

For Ac-WBRDEFRAIBRVHGNELRELADK-OH, the “final HPLC purity” value is 99%.

As for Ac-WBRDEFRAIBRVHGXELRXLADK-OH, the “final HPLC purity” value amounted to 99%.

For the substance Ac-WBRNEFAAIBRVHGNQLRELANK-OH, the “final HPLC purity” value is on record as 98%.

On to Ac-WBRNEFAAIBRVHGXQLRXLANK-OH, for which the “final HPLC purity” value stood at 98%.

With Ac-WBRNEFRAIBRVHGNQLRELANK-OH, the “final HPLC purity” value was found to be 98%.

On to Ac-WBRNEFRAIBRVHGXQLRXLANK-OH, for which the “final HPLC purity” value was determined as 98%.

Regarding Ac-WBRNQFAAIBRVHGNQLRELANK-OH, the “final HPLC purity” value came to 99%.

With Ac-WBRNQFAAIBRVHGXQLRXLANK-OH, the “final HPLC purity” value worked out at 99%.

Take Ac-WBRNQFRAIBRVHGNQLRELANK-OH: the “final HPLC purity” value worked out at 99%.

In the case of Ac-WBRNQFRAIBRVHGXQLRXLANK-OH, the “final HPLC purity” value is reported as 99%.

As for Ac-WBRREFRRIBRVHGNELRELADK-OH, the “final HPLC purity” value turned out to be 98%.

On to Ac-WBRREFRRIBRVHGRELRELADK-OH, for which the “final HPLC purity” value stood at 99%.

On to Ac-WBRXEFAXIBRVHGNELRELADK-OH, for which the “final HPLC purity” value amounted to 95%.

Regarding Ac-WBRXEFRXIBRVHGNELRELADK-OH, the “final HPLC purity” value was found to be 99%.

Ac-WBXNEFXAIBAVHGRQLRRLARK-OH: the “final HPLC purity” value came out at 95%.

On to FAM-WBDDEFAAIBAVHGNELRELADK-OH, for which the “final HPLC purity” value was 95%.

For the substance FAM-WBDNEFAAIBAVHGRQLRRLANK-OH, the “final HPLC purity” value turned out to be 96%.

Regarding FAM-WBDNEFAAIBAVHGRQLRRLARK-OH, the “final HPLC purity” value is recorded as 97%.

Regarding FAM-WBNNEFAAIBAVHGRQLRRLANK-OH, the “final HPLC purity” value turned out to be 97%.

On to FAM-WBNNEFAAIBAVHGRQLRRLARK-OH, for which the “final HPLC purity” value worked out at 98%.

Consider FAM-WBNNEFAXIBAXHGRQLRRLARK-OH, for which the “final HPLC purity” value is listed as 95%.

Regarding FAM-WBNNEFXAIBXVHGRQLRRLARK-OH, the “final HPLC purity” value is reported as 95%.

FAM-WBNXEFAXIBAVHGRQLRRLARK-OH: the “final HPLC purity” value was 95%.

In the case of FAM-WBRDEFAAIBRVHGNELRELADK-OH, the “final HPLC purity” value was 95%.

For the substance FAM-WBRDEFAAIBRVHGXELRXLADK-OH, the “final HPLC purity” value is given as 93%.

Consider FAM-WBRDEFRAIBRVHGNELRELADK-OH, for which the “final HPLC purity” value is recorded as 97%.

As to FAM-WBRDEFRAIBRVHGXELRXLADK-OH, the “final HPLC purity” value amounted to 94%.

On to FAM-WBRNQFAAIBRVHGNQLRELANK-OH, for which the “final HPLC purity” value was found to be 94%.

For the substance FAM-WBRNQFAAIBRVHGXQLRXLANK-OH, the “final HPLC purity” value worked out at 96%.

As to FAM-WBRNQFRAIBRVHGNQLRELANK-OH, the “final HPLC purity” value is on record as 99%.

FAM-WBRNQFRAIBRVHGXQLRXLANK-OH: the “final HPLC purity” value is reported as 96%.

In the case of FAM-WBRXEFAXIBRVHGNELRELADK-OH, the “final HPLC purity” value is 95%.

Take FAM-WBRXEFRXIBRVHGNELRELADK-OH: the “final HPLC purity” value amounted to 94%.

Take FAM-WBXNEFXAIBAVHGRQLRRLARK-OH: the “final HPLC purity” value was found to be 97%.
